The name of at least one read-out is uncertain.
Columns and labels:
Type in all cases: cell-based
[1] = test system: A549 human lung adenocarcinoma cell line, Bleomycin-induced senescent state; experiment: High-throughput senolytic screening with IC50 validation (Hoechst DNA staining cell count); settings: senescent versus proliferative A549 cells
[2] = test system: HT1080 cells induced into senescence through Trf2 deletion; experiment: Crystal violet cell viability / IC50 assay in HT1080 cells made senescent by TRF2 deletion (doxycycline); settings: TRF2 deletion following doxycycline
[3] = test system: HT1080 cells, proliferative; experiment: Crystal violet cell viability / IC50 assay in proliferating HT1080 cells; settings: proliferative counterparts

Row | Compound | senolytic activity (IC50 validation of screening hits) [1] | susceptibility to the treatment (IC50 analysis) [2] | response to the treatment (IC50 analysis) [3]
1 | CN(C)CC[C@H](CSc1ccccc1)Nc1ccc(S(=O)(=O)NC(=O)c2ccc(N3CCN(Cc4ccccc4-c4ccc(Cl)cc4)CC3)cc2)cc1[N+](=O)[O-] [ABT-737] | robust and dose-dependent senolytic effect | – | –
2 | C#CC(=O)NCCNc1nc(C)nc(C)c1Br [Compound 96558] | significant activity | significantly higher susceptibility | comparatively reduced response
3 | CN(C)CC#Cc1ccc(OCCCc2sc(N3CCc4cccc(C(=O)Nc5nc6ccccc6s5)c4C3)nc2C(=O)O)c(F)c1 [Compound A-1155463, A-1155463] | robust and dose-dependent senolytic effect | – | –
